These results are taken from publication PMC9604505.

Sequences of proteins named here, by UniProt entry; tags and fusion partners are left off. A change or cut given only in a name is not applied to a line headed by its entry.
UniProt P04608: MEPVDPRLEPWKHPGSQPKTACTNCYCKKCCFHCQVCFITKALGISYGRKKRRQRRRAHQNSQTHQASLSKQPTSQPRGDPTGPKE
UniProt P50750: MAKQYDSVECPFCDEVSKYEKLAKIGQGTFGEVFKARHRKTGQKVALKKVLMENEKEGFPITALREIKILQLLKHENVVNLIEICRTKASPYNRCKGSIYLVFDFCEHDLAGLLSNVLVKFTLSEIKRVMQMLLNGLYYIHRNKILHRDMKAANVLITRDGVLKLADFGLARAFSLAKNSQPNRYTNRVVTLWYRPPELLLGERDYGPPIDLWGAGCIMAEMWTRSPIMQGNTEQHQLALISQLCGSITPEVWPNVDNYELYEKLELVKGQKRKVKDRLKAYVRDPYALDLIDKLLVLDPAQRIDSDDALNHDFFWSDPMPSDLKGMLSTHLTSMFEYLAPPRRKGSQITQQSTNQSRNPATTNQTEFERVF

Results are given in words; binding and its absence hold for the method and conditions named. Binding seen in cells or lysates may run through a third protein. Some binding calls cover weakened binding; strength is not graded here.

The target in the experiment is Flag-tagged HIV-1 Tat (HIV-1) (UniProt P04608). Put plainly: co-IP; HEK293T co-transfected with Flag-Tat, NL4-3EGFP and increasing amounts of Myc-tagged chimeric protein; lysate precipitated with Flag antibody and protein A/G agarose, washed with PBS; blots for CycT1 and CDK9.

“positive transcription elongation factor b (P-TEFb): cyclin-dependent kinase 9 (CDK9) and cyclin T1 (CycT1) (from UniProt P50750 1-372; O60563 1-726) (complex)”: the binding result is given as “binds”.
